Experimental data as given in paper PMC5552742.
No constants are given. Whether binding was seen depends on the method and setting. Some binding calls cover weakened binding; strength is not graded here.

Amino acid sequences for entries named in this document (tags omitted).
UniProt P00169: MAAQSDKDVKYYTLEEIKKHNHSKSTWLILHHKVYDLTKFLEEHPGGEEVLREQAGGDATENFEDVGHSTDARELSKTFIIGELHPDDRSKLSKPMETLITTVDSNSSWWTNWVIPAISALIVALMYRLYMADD
UniProt P00004: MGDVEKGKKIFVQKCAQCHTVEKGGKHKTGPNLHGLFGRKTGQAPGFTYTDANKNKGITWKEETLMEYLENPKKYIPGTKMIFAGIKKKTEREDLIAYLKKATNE

What was measured:
[1] = molecular target: full-length rabbit cytochrome b5 (rabbit) (UniProt P00169); experiment: NMR titration; unlabeled cyt c titrated into 0.1 mM 15N-cytb5 in lipid-free buffer (10 mM potassium phosphate, pH 7.4); 2D 15N/1H TROSY-HSQC, 298 K; both proteins ferric; both purified
[2] = molecular target: full-length rabbit cytochrome b5 (rabbit) (UniProt P00169); experiment: NMR titration; unlabeled cyt c titrated into 15N-cytb5 in DMPC/DHPC isotropic bicelles; 2D 15N/1H TROSY-HSQC, 298 K; both proteins ferric; both purified
[3] = molecular target: full-length rabbit cytochrome b5 (rabbit) (UniProt P00169); experiment: NMR titration; unlabeled cyt c titrated into about 0.1 mM 15N-cytb5 in 4F-DMPC nanodiscs (10 mM potassium phosphate, pH 7.4); 2D 15N/1H TROSY-HSQC, 298 K; both proteins ferric; both purified

Measured: binding

equine cytochrome c (from UniProt P00004 1-105)
binds weakly: all assays above
